Source: paper PMC3072370
These are yes or no findings as the source states them, for the method shown. Binding seen in cells or lysates may run through a third protein. Some binding calls cover weakened binding; strength is not graded here.

By UniProt entry, the sequences of proteins in these tests, tags left out. Residues count along the entry.
UniProt P63165, residues 1-97: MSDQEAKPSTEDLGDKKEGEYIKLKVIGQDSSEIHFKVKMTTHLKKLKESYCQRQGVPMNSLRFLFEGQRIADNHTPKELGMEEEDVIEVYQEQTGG
UniProt Q9C035: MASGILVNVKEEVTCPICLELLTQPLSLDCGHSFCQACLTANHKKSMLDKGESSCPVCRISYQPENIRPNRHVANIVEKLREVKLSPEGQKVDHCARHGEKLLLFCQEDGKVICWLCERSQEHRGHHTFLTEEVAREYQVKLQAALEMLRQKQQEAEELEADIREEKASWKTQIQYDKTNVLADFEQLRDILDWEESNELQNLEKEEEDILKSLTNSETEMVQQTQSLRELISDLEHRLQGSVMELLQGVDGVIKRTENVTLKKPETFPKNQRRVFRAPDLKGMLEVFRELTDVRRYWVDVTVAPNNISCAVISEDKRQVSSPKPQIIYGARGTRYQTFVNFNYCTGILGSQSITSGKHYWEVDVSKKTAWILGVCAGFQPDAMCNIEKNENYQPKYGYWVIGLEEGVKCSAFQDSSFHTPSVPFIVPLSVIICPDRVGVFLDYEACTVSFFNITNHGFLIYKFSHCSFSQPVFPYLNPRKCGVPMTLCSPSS

Molecular target: GST-SUMO-1 fusion protein (human) (UniProt P63165)
Experiment: pull-down; 2 µg purified GST-SUMO1 on Glutathione Sepharose 4B with 100 µl lysate of 293T cells transfected with FLAG-TRIM5α; binding buffer 20 mM Tris-HCl pH 8.0, 100 mM KCl, 10 mM EDTA, 0.5 mM DTT, 2 hours; 4 washes with 0.2% NP-40; anti-FLAG blot; only the target purified

binding: binds weakly
Substance: FLAG-tagged human TRIM5α (wild type) (from UniProt Q9C035 1-493)
